In the supplement of paper PMC7666118:
The other results are listed elsewhere or left out.

Amino acid sequences for entries named in this document (tags omitted). A change or cut given only in a name is not applied to a line headed by its entry.
UniProt P42892: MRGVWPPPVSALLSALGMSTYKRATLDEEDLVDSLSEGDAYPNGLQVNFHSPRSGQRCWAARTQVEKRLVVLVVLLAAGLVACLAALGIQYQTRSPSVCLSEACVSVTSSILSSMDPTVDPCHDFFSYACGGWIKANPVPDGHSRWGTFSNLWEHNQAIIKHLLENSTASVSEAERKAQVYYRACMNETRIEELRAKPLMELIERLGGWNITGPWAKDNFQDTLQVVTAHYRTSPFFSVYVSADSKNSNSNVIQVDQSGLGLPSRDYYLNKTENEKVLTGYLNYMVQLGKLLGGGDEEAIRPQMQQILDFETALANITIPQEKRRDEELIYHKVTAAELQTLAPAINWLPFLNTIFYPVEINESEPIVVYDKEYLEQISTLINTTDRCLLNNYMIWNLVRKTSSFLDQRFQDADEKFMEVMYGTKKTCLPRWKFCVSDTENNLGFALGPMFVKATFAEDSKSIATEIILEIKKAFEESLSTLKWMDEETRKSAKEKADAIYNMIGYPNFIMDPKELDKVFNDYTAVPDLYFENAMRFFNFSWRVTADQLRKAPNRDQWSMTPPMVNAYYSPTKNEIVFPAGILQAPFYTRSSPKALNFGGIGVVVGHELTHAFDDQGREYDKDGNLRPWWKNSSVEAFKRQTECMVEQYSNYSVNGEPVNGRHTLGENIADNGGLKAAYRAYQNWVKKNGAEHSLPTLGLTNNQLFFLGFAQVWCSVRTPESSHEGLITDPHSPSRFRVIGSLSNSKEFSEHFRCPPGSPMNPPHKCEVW
UniProt Q9BQC3: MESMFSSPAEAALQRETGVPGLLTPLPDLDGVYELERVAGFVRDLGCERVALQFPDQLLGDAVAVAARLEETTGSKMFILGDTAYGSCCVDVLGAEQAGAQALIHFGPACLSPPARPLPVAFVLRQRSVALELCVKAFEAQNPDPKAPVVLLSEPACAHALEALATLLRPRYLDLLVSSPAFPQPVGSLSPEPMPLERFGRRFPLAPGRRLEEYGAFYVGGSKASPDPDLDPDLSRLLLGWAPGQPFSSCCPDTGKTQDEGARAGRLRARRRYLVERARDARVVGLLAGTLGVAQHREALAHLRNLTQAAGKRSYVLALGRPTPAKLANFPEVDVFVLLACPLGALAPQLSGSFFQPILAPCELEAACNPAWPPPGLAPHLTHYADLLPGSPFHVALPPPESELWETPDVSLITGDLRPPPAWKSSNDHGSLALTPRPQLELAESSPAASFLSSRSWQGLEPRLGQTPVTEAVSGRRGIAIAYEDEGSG
UniProt Q8NBA8: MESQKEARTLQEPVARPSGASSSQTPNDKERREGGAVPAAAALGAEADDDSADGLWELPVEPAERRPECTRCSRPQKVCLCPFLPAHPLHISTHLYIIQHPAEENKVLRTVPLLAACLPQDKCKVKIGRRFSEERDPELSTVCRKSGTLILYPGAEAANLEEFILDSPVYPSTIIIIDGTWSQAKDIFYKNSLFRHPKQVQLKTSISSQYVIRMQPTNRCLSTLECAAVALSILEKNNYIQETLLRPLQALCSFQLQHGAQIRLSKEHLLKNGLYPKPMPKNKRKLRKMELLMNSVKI
UniProt P06730, whole entry: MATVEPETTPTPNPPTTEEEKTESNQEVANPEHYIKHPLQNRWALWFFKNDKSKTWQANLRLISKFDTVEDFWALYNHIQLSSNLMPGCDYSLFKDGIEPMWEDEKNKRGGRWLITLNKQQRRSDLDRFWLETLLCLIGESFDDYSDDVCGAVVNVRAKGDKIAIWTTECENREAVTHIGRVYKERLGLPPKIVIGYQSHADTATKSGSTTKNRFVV
UniProt Q13541: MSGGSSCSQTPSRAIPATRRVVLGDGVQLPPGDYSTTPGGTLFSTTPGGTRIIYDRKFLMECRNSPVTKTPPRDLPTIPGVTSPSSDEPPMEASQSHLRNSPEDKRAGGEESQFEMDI
UniProt P63172, whole entry: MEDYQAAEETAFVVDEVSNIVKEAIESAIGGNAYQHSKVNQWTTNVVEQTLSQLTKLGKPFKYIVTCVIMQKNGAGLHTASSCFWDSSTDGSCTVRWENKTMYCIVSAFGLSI
UniProt O60869: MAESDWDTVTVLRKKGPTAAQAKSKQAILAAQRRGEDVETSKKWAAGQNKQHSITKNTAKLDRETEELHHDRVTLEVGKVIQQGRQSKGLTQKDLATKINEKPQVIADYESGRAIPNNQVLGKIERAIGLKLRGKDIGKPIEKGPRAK
UniProt Q9NPA8: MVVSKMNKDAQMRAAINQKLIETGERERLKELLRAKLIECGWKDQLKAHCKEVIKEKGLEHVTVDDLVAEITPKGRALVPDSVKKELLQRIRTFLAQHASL
UniProt Q7L2H7, whole entry: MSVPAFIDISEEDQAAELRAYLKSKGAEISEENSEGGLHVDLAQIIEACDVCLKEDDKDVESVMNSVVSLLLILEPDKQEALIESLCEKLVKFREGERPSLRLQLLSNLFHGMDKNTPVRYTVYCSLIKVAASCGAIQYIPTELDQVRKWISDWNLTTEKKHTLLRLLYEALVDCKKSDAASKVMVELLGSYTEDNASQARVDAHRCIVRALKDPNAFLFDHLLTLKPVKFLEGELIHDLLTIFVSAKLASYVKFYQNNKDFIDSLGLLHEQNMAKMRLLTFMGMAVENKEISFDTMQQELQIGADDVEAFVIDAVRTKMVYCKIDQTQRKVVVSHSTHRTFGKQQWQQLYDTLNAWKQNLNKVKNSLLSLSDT
UniProt Q9UNQ2: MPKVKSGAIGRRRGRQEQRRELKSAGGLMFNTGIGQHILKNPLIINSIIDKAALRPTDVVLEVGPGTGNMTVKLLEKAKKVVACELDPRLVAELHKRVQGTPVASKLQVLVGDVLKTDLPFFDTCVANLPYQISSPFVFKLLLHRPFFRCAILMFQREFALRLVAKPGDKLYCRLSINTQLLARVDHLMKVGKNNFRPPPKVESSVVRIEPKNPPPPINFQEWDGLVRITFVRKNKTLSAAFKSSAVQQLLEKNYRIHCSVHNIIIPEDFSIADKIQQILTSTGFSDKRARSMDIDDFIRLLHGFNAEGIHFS
UniProt Q6V1X1: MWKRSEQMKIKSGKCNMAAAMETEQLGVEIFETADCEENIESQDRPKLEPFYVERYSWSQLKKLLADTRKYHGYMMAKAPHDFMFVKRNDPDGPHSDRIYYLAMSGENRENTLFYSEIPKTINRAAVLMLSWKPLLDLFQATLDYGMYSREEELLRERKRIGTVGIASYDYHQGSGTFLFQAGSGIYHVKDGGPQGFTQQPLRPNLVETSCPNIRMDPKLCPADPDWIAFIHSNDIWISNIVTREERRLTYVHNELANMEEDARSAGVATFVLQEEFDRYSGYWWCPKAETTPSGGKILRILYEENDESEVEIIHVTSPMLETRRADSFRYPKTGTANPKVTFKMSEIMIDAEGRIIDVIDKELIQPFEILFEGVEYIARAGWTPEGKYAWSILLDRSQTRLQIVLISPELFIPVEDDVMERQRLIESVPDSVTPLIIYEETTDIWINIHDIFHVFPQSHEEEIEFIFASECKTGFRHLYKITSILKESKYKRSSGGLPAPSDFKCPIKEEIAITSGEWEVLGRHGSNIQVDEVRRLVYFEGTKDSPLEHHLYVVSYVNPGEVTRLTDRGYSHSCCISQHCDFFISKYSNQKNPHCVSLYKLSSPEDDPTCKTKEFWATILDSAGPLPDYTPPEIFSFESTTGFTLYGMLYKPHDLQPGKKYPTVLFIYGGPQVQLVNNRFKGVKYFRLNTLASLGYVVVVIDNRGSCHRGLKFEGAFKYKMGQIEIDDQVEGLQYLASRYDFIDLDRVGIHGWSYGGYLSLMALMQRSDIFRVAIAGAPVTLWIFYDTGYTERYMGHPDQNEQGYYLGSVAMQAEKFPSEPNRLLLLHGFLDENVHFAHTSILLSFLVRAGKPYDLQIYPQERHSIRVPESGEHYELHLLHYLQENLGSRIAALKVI
UniProt Q9Y2H0: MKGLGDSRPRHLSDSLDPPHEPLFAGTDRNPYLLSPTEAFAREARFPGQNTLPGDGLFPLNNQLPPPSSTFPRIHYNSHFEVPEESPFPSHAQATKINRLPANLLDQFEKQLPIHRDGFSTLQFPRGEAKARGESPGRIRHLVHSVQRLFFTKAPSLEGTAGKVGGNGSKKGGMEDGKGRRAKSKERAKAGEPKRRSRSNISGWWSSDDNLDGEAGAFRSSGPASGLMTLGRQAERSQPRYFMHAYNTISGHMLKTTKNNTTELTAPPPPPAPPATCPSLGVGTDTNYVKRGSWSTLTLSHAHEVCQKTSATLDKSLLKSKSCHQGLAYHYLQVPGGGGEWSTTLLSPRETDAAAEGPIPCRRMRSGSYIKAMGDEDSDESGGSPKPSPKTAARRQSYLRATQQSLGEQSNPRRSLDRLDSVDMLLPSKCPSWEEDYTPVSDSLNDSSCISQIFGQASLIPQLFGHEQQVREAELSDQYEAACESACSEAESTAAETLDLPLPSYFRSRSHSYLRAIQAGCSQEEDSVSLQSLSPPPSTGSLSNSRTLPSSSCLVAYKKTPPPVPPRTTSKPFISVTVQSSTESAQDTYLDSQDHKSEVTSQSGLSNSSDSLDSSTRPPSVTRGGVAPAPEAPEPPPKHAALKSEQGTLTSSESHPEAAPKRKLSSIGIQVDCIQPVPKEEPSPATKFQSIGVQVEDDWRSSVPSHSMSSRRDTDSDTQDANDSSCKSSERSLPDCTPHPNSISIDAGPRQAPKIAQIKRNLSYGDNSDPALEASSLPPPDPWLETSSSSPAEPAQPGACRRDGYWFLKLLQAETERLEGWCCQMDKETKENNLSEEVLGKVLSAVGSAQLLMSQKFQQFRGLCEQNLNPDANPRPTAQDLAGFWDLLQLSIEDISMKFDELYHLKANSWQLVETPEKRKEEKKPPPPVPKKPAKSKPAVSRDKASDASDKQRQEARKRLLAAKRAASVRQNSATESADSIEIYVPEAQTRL
UniProt Q13409, whole entry: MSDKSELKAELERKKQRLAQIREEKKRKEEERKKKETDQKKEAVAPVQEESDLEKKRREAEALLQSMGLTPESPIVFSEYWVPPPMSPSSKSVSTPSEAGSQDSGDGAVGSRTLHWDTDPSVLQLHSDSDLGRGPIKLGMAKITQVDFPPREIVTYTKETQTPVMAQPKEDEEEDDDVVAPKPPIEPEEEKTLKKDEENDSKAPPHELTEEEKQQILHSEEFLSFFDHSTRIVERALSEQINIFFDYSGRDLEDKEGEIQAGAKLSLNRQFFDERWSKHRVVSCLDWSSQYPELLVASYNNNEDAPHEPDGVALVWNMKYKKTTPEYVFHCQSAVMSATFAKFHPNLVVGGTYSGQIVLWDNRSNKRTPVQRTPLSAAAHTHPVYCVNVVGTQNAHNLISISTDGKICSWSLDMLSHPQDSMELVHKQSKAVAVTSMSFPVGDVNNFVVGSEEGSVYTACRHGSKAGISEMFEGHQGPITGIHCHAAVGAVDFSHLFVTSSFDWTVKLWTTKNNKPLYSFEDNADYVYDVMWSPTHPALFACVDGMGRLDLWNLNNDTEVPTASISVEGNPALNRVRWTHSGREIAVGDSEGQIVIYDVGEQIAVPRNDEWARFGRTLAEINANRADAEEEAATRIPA
UniProt P55010, whole entry: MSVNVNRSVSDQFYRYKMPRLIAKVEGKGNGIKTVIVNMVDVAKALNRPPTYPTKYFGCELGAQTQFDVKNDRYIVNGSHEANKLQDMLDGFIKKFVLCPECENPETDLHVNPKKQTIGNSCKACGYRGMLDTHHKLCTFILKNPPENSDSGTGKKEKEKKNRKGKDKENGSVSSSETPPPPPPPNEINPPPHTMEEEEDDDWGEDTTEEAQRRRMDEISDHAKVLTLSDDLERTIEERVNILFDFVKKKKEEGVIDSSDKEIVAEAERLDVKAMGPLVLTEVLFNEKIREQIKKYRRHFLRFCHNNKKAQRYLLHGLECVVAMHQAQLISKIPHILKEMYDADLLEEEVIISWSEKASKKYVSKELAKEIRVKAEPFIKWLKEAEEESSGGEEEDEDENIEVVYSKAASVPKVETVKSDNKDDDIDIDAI
UniProt Q7RTS9: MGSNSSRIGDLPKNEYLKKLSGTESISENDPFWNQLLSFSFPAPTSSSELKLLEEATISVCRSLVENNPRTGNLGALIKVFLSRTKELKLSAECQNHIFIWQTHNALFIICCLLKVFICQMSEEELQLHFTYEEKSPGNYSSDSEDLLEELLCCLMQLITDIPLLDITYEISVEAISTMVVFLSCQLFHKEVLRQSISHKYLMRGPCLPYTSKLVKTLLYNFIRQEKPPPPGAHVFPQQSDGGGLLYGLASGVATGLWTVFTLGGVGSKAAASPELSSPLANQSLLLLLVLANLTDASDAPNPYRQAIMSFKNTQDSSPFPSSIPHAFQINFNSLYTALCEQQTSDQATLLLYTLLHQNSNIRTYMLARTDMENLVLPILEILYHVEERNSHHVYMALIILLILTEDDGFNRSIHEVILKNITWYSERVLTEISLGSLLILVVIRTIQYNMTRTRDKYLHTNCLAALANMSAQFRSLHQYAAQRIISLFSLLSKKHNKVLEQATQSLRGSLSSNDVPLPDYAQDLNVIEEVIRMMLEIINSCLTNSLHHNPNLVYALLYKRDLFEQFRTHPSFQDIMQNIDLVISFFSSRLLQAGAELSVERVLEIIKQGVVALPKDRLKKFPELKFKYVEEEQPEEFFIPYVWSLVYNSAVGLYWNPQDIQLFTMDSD

Compound: COc1ccc(Cn2ccc3ccc(C(=O)NO)cc32)cc1
Assay: dose-dependent thermal stabilisation call (2D-TPP, DLPTP, 10% FDR) (binary (1 = stabilised)); higher = stabilised by the compound
Conditions: system: HL-60 intact cells; concentration range 0.04-10 µM

Row | Target | dose-dependent thermal stabilisation call
1 | ECE1 (UniProt P42892) | inactive: 0
2 | EIF4E2 (UniProt O60573) | inactive: 0
3 | DST (UniProt Q03001) | inactive: 0
4 | ECHDC1 (UniProt Q9NTX5) | inactive: 0
5 | EEF1G (UniProt P26641) | inactive: 0
6 | DPH2 (UniProt Q9BQC3) | inactive: 0
7 | DTWD2 (UniProt Q8NBA8) | inactive: 0
8 | E2F4 (UniProt Q16254) | inactive: 0
9 | EIF4EBP2 (UniProt Q13542) | inactive: 0
10 | EGLN1 (UniProt Q9GZT9) | inactive: 0
11 | DUS2L (UniProt Q9NX74) | inactive: 0
12 | DIS3L (UniProt Q8TF46) | inactive: 0
13 | EIF4E (UniProt P06730) | inactive: 0
14 | EIF4EBP1 (UniProt Q13541) | inactive: 0
15 | EIF4A3 (UniProt P38919) | inactive: 0
16 | DOCK8 (UniProt Q8NF50) | inactive: 0
17 | ELAC1 (UniProt Q9H777) | inactive: 0
18 | DYNLT1 (UniProt P63172) | inactive: 0
19 | DKC1 (UniProt O60832) | inactive: 0

2 entries picked at random from the list so far, as already listed:
Row | Target | dose-dependent thermal stabilisation call
17 | ELAC1 (UniProt Q9H777) | inactive: 0
10 | EGLN1 (UniProt Q9GZT9) | inactive: 0

Going on with the list:

Row | Target | dose-dependent thermal stabilisation call
20 | DOCK5 (UniProt Q9H7D0) | inactive: 0
21 | EDF1 (UniProt O60869) | inactive: 0
22 | EHBP1L1 (UniProt Q8N3D4) | inactive: 0
23 | EPS15L1 (UniProt Q9UBC2) | inactive: 0
24 | ENY2 (UniProt Q9NPA8) | inactive: 0
25 | EIF3M (UniProt Q7L2H7) | inactive: 0
26 | DPP3 (UniProt Q9NY33) | inactive: 0
27 | DIMT1L (UniProt Q9UNQ2) | inactive: 0
28 | DPP8 (UniProt Q6V1X1) | inactive: 0
29 | DLGAP4 (UniProt Q9Y2H0) | inactive: 0
30 | EIF2S2 (UniProt P20042) | inactive: 0
31 | DNA2 (UniProt P51530) | inactive: 0
32 | ERLIN1 (UniProt O75477) | inactive: 0
33 | DYNC1I2 (UniProt Q13409) | inactive: 0
34 | ERO1LB (UniProt Q86YB8) | inactive: 0
35 | EIF5 (UniProt P55010) | inactive: 0
36 | DYM (UniProt Q7RTS9) | inactive: 0
37 | EDEM1 (UniProt Q92611) | inactive: 0
